These results are taken from PMC8024564.

The chains behind the UniProt entries cited, without tags or fusion partners. Where a name states a change or a piece, a line headed by the entry shows the natural chain unless it says otherwise. Residues count along the entry.
UniProt P22366: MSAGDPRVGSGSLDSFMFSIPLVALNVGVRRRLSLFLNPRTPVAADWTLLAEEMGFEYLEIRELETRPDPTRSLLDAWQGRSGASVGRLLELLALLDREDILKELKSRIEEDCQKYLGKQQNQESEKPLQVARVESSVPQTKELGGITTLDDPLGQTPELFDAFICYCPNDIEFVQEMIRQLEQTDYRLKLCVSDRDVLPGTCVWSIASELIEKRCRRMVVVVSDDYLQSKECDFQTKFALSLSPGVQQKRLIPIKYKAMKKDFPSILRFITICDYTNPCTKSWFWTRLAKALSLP
UniProt Q9QUK6, residues 26-835: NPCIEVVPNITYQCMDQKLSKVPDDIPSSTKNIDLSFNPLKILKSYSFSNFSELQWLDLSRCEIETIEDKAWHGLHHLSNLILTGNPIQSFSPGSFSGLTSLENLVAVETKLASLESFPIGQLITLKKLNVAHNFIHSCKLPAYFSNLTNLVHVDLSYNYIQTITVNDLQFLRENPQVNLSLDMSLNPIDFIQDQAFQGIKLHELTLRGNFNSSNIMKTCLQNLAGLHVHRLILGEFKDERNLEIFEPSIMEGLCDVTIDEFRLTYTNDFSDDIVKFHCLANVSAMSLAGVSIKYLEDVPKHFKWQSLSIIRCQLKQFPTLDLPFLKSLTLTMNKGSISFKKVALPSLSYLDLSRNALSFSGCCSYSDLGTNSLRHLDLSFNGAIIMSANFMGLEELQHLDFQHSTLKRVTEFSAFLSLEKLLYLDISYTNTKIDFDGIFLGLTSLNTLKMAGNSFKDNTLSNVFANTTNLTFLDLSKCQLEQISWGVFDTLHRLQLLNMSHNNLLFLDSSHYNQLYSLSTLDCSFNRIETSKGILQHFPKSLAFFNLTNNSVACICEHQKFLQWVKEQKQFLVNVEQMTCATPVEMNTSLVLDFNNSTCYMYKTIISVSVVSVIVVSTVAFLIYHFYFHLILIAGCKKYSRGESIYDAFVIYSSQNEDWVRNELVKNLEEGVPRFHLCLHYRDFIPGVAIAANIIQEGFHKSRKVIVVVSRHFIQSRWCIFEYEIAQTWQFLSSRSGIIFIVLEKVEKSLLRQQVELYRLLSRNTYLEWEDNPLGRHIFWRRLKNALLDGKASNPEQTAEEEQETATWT

Results are given in words; binding and its absence hold for the method and conditions named. Binding seen in cells or lysates may run through a third protein. Some results given as binding are weak or reduced against the parent protein; the word gives no strength.

In this assay the target is MyD88 (myeloid differentiation primary response gene 88), endogenous in J774A.1 macrophages (mouse (endogenous in J774A.1)) (UniProt P22366). The assay is described as follows: co-IP; J774A.1 cells stimulated with LPS (1 ug/ml); endogenous proteins immunoprecipitated with anti-MyD88 overnight at 4°C, protein A/G magnetic beads.

On to “TLR4 (Toll-like receptor 4), endogenous in J774A.1 macrophages (from UniProt Q9QUK6 26-835)”, for which the binding entry was “binds”.
